Laboratory results taken from PubChem BioAssay AID758 (NMMLSC, 2007).
In all, about 190,000 compounds went through this assay and about 110 (0.058%) were called active. Inconclusive results, whose numbers are uncertain, are shown with a selection of clear calls.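 How the source made its calls: active means fluorescent GTP binding to Rab7 beads changed by at least 20 points from the 100% baseline, either direction, mostly lower; inconclusive means compound itself probably fluorescent, or too few beads counted; inactive means the rest.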

Tested on: Rab7 GTPase wild type (dog), Bodipy-FL-GTP binding
Assay: modulators of GTP binding to Rab7, primary screen, biochemical, wildtype, multiplex bead flow cytometry (AID 758);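 further: median green fluorescence of bound Bodipy-FL-GTP per Rab7 bead population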
Conditions: GST-Rab7 beads, fluorescent GTP binding, at 10 µM, actives lie on both sides, untreated = 100%, excess cold GTP = 0%

Structure (SMILES)	GTP binding activity (percent of control)
Cc1ccc2cc(CN(CC3CCCO3)C(=S)Nc3ccccc3)c(=O)[nH]c2c1 (stereo not drawn)	inconclusive: 103%
CCOC(=O)c1c2c3c(cccc3[nH]c1=O)C(=O)c1ccccc1-2	inactive: 84%
COc1cc(OC)c(NS(=O)(=O)c2cc(C(=O)OCC(=O)NCC3CCCO3)ccc2OC)cc1Cl (stereo not drawn)	inactive: 98%
COC(=O)C1=C(C)NC(=O)NC1c1ccc(OC(=O)c2ccco2)cc1 (stereo not drawn)	inactive: 97%
O=C(O)c1csc(-n2nc(-c3ccccc3)cc2C(F)(F)F)n1	inconclusive: 93%
C=CCSc1nc(-c2ccc(OC)cc2)c(C#N)c(=O)n1CC=C	inactive: 100%
CCc1nnc(NC(=O)CSc2nnc(Cc3cc(=O)[nH]c(=O)[nH]3)n2-c2ccc(OC)cc2)s1	inconclusive: 94%
O=S1(=O)CC(O)C(N2CCC(c3ccccc3)CC2)C1 (stereo not drawn)	inconclusive: 100%
CC(=O)c1cccc(NC(=O)N2CCCC2C(=O)NCc2ccc(C)cc2)c1 (stereo not drawn)	inconclusive: 98%
O=C(N/N=C/c1cccnc1)C(O)c1ccccc1 (stereo not drawn)	inconclusive: 99%
c1ccc(-c2nnc(SCC3CCCCO3)nc2-c2ccccc2)cc1 (stereo not drawn)	inconclusive: 90%
N#C/C(=C\C=C\c1ccccc1[N+](=O)[O-])C(=O)NC1CCCCC1	inconclusive: 93%
CCN1CCCC1CNC(=O)c1ccc(N2CCCC2=O)cc1 (stereo not drawn)	inconclusive: 100%
Cc1ccc(N2C(=O)c3ccccc3C2Nc2cccnc2)nc1 (stereo not drawn)	inactive: 99%
Cc1cc(C)n(Cc2cnc(N3CCOCC3)s2)n1	inconclusive: 87%
Nc1c(S(=O)(=O)c2cccs2)c2nc3ccccc3nc2n1/N=C/c1cccc(O)c1	active: 73%
O=C(NCCc1ccccc1)C1CCCN(S(=O)(=O)c2cccc3nonc23)C1 (stereo not drawn)	inconclusive: 103%
C=CCNc1nc(=S)[nH]c2cc(OC)c(OC)cc12	inconclusive: 89%
Cc1cccc(CSCc2ccc(C(=O)NCC3CCCO3)o2)c1 (stereo not drawn)	inactive: 103%
O=C(NC1CCCC1)C(c1ccncc1)N(C(=O)c1csnn1)C1CCCC1 (stereo not drawn)	inactive: 101%
CC(=O)N1CCN(C(=O)CCc2c[nH]c3ccccc23)CC1	inconclusive: 107%
Cc1ccc(NC(=S)N2CCC(N(C)CC3CCCO3)CC2)cc1 (stereo not drawn)	inactive: 107%
COc1ccc(-n2nnnc2SCC(=O)NCc2cccs2)cc1	inconclusive: 93%
COc1ccc(C)cc1NS(=O)(=O)c1ccc(NC(=O)CN(c2cc([N+](=O)[O-])ccc2C)S(C)(=O)=O)cc1	inconclusive: 99%

Structure (SMILES)	GTP binding activity (percent of control)
O=C(O)CSc1nnc(Nc2ccccc2)n1-c1ccccc1	inconclusive: 96%
Cc1cc(-c2nn(-c3ccccc3F)cc2CN2CCN(c3ccccn3)CC2)c(C)s1	inactive: 100%
O=C(O)CCNS(=O)(=O)c1ccc2c(c1)CCCC2	inconclusive: 94%
CC1COc2ccccc2N1S(=O)(=O)c1ccccc1 (stereo not drawn)	inactive: 95%
CN(/N=C/c1ccc(Br)o1)C1=NS(=O)(=O)c2ccccc21	inactive: 91%
CCOc1ccc(NC(=O)NC(=O)N(C(C)C)S(C)(=O)=O)cc1	inactive: 104%
C=CCNc1oc(/C=C/c2ccccc2)nc1C#N	inconclusive: 103%
COC(=O)c1cc(NC(=O)c2cccc(Cl)c2)c(=O)oc1/C=C/Nc1cc(C)cc(C)c1	inconclusive: 260%
O=C(Cn1nnc2ccccc2c1=O)N1CCOCC1	inactive: 97%
COc1ccc(N(C(=O)CNC(=O)c2cccs2)C(C(=O)NCC2CCCO2)c2ccccc2)cc1OC (stereo not drawn)	inactive: 98%
Cc1cc(=O)[nH]c(N=N/C(=N/Nc2ccc(O)cc2)c2ccccc2)n1	inconclusive: 95%
COC(=O)CN1C(=S)N(c2ccc(OC)cc2)C(=O)/C1=C/c1ccc(OC)cc1	inconclusive: 94%
CCOC(=O)CCn1nc(-c2ccc(Cl)cc2)cc1N	inactive: 99%
COc1cc(C(=O)OCC(=O)NCc2ccccc2)cc(NC(=O)c2ccco2)c1OC	inconclusive: 93%
CCOC(=O)c1sc2nc3c(SCC(=O)O)cc(C(=O)c4cc(F)ccc4O)cn3c(=O)c2c1C	inconclusive: 92%
COC(=O)c1ccc(NC(=S)NCCCn2ccnc2)cc1	inactive: 97%
O=C(Nc1ccccc1N1CCOCC1)C1CCN(S(=O)(=O)c2ccccc2F)CC1	inactive: 102%
O=C(NCc1ccccc1Cl)c1ccccc1Oc1ccccc1	inactive: 94%
Cc1cc([N+](=O)[O-])c2c(c1C)C1C=CCC1C(c1ccccn1)N2 (stereo not drawn)	inconclusive: 88%
CC1=CCC[C@@H]2[C@@](C)(CC/C(C)=C/C(=O)O)[C@H](C)CC[C@@]12C	inactive: 99%
COC(=O)C1=NN(C(=O)c2cccc(Br)c2)C(O)(c2ccc(Cl)cc2)C1 (stereo not drawn)	inactive: 94%
COCCn1c(=S)[nH]c2cc(C(=O)N3CCc4ccccc4C3)ccc2c1=O	inactive: 103%
Cc1cc2nnc(SCC(=O)N3CCCCCC3)n2c(N)n1	inactive: 106%
COc1cc(N=c2oc3c(C)ncc(CO)c3cc2C(N)=O)cc(OC)c1OC	inactive: 91%

Six of the compounds above, as a markdown table:

| Structure (SMILES) | GTP binding activity (percent of control) |
| --- | --- |
| COC(=O)C1=C(C)NC(=O)NC1c1ccc(OC(=O)c2ccco2)cc1 (stereo not drawn) | inactive: 97% |
| CCc1nnc(NC(=O)CSc2nnc(Cc3cc(=O)[nH]c(=O)[nH]3)n2-c2ccc(OC)cc2)s1 | inconclusive: 94% |
| c1ccc(-c2nnc(SCC3CCCCO3)nc2-c2ccccc2)cc1 (stereo not drawn) | inconclusive: 90% |
| CC(=O)N1CCN(C(=O)CCc2c[nH]c3ccccc23)CC1 | inconclusive: 107% |
| CCOc1ccc(NC(=O)NC(=O)N(C(C)C)S(C)(=O)=O)cc1 | inactive: 104% |
| CCOC(=O)c1sc2nc3c(SCC(=O)O)cc(C(=O)c4cc(F)ccc4O)cn3c(=O)c2c1C | inconclusive: 92% |

(continued)

Structure (SMILES)	GTP binding activity (percent of control)
Cc1ccccc1C(=O)c1cccn1CC(=O)NC(C)c1ccc2c(c1)OCCO2 (stereo not drawn)	inactive: 106%
COc1ccc(C(=O)NCC(=O)OCC(=O)N2CCc3ccccc32)cc1	inactive: 91%
CN(C)Cc1nc2ccccc2c(=O)n1CC(=O)Nc1cccc(S(=O)(=O)N2CCOCC2)c1	inconclusive: 95%
O=C(Nc1ccc(Br)cc1F)C1CCCO1 (stereo not drawn)	inconclusive: 95%
COc1ccc(C(CC(=O)O)n2cnnn2)cc1 (stereo not drawn)	inconclusive: 102%
COc1cc(/C=N\NC(=O)c2ccc(Cn3nc([N+](=O)[O-])c(Cl)c3C)o2)ccc1O	inconclusive: 80%
CCN1/C(=C/c2ccc3cc(C)ccc3[n+]2C)Sc2ccc3sccc3c21	inconclusive: 58%
Cc1nc(C(=O)N(C)C)nn1-c1ccc(Cl)cc1Cl	inactive: 101%
CC(=O)OCC1OC(n2ccc(=O)[nH]c2=O)C(O)C1O (stereo not drawn)	inconclusive: 106%
CCc1cc2c(N3CCN(c4nnc(CC)s4)CC3)ncnc2s1	inconclusive: 91%
COc1ccc(NC(=O)/C(Cl)=C(/Cl)S(=O)Cc2ccccc2Cl)cn1 (stereo not drawn)	inactive: 94%
COc1cccc(C(=O)N2CCSC2=S)c1	inconclusive: 97%
COc1ccc(-c2noc(C(=O)NCc3ccc(F)cc3)n2)cc1OC	inactive: 91%
O=S(=O)(NCc1ccco1)N1CCCCCC1	inconclusive: 96%
CC1CN(C(=O)c2cccc(S(=O)(=O)Nc3cc(Cl)ccc3Cl)c2)CC(C)O1 (stereo not drawn)	inactive: 96%
O=S(=O)(CC(CN1CCOCC1)N1CCOCC1)c1ccccc1 (stereo not drawn)	active: 23%
CCOC(=O)CC(=O)CSc1ccc2nnc(-c3ccc(C)cc3)n2n1	inconclusive: 106%
C=CCN(c1ccccc1)S(=O)(=O)c1ccc2c(c1)oc(=O)n2C	inactive: 100%
CNCC(=O)Nc1c(C)n[nH]c1C	inconclusive: 101%
CCC(=O)Nc1ccc(C(=O)N/N=C/c2cc(Br)c(OC)cc2OC)cc1	inconclusive: 99%
Cn1c(C(=O)NCCCN2CCN(c3cccc(Cl)c3)CC2)cc2c(=O)n(C)c3ccccc3c21	inconclusive: 80%
CCOC(=O)c1cc(-c2cccc([N+](=O)[O-])c2)n[nH]1	inconclusive: 98%
Cc1nc2ccccc2n1CC(O)Cn1c2ccccc2c2ccccc21 (stereo not drawn)	inconclusive: 101%
CCOc1cc(/C=C2/SC(=S)NC2=O)ccc1OC(=O)c1ccco1	inconclusive: 87%

Structure (SMILES)	GTP binding activity (percent of control)
CC(/C=N\NC(=O)CN1CCN(S(=O)(=O)c2ccc(C)cc2)CC1)=C\c1ccccc1	inactive: 98%
COc1c(C)cc(Br)cc1C(=O)Nc1cccc(NC(=O)c2ccco2)c1	inconclusive: 102%
COCCn1c(SCC(=O)Nc2ccc(C)cc2C)nc2c(oc3ccccc32)c1=O	inconclusive: 104%
O=C(O)CCCCCCCCCC(=O)c1cccs1	inactive: 94%
CCOC(=O)CSc1nc2sc(C)c(C)c2c(=O)n1C	inconclusive: 101%
O=C(NNC1CC(=O)N(c2cccc(Cl)c2)C1=O)c1cccs1 (stereo not drawn)	inconclusive: 101%
CC(=O)Nc1ccc(N(C(=O)c2ccco2)C(C(=O)NC2CCCC2)c2ccc(N3CCOCC3)cc2)cc1 (stereo not drawn)	inactive: 103%
CC(C)Nc1nc(NC(C)C)nc(Nn2cnnc2)n1	inconclusive: 98%
CC(C)(C)OC(=O)N[C@@H](Cc1ccccc1)c1nnc(S(=O)(=O)Cc2cccc(F)c2)o1	active: 79%
COc1ccc(CC(=O)NNC(=O)c2cnccn2)cc1	inconclusive: 98%
COC(=O)CCSCC(=O)Nc1cc(C)on1	inconclusive: 107%
COc1cccc(-c2c(C#N)c(N)nc3c2c(=O)nc2sccn23)c1	inconclusive: 102%
C=CCNC(=O)c1cc2c(=O)n3cc(C)ccc3nc2nc1NCC1CCCO1 (stereo not drawn)	active: 65%
Cn1c2ccc(Cl)cc2c2nc3ccccc3nc21	inconclusive: 89%
CCn1cc(C(=O)O)c(=O)c2cc(F)c(N/N=C/c3ccccc3[N+](=O)[O-])cc21	active: 77%
O=C(COC(=O)c1cccs1)NCC1CCCCC1	inactive: 105%
Cc1cc(NC(=O)CCC2CCCCC2)no1	inconclusive: 102%
Fc1cccc(Cl)c1Cn1nnc(-c2ccc3c(c2)OCO3)n1	inconclusive: 96%
C/C(=N\NC(=O)CCc1ccc(S(=O)(=O)N2CCOCC2)cc1)c1ccc(Br)cc1	inactive: 101%
CCc1nn2cc(C(=O)c3cc(Cl)ccc3O)cnc2c1-c1ccc(F)cc1	inconclusive: 86%
Cc1ccc(S(=O)(=O)Oc2ccc(/C=C(/NC(=O)c3ccccc3)C(=O)O)cc2)cc1	inconclusive: 94%
